Taken from: PubChem BioAssay AID504784 (Drosophila RNAi Screening Center, 2011)

Test: 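Genome-wide knock-down for genes giving too much or too little stored lipid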 (primary screen)
Cells: Drosophila Kc167 embryonic cells
Reagent: long dsRNA against Drosophila genes, about 250 ng dsRNA per well
Time to read-out: 4 days
Challenge: cells fed 400 µM oleic acid bound to BSA
Read-out: 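Microscope images give a droplet-to-nucleus area ratio, taken as log and converted to a screen-wide B-score; higher values mean greater lipid storage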
Direction: droplet/nuclear area B-score: higher = more stored lipid (overstorage)
The deposit covers about 17,000 reagents; this is an unselected part of those that have a named target and a result. 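Each column is one replicate's B-score; the combined score over replicates was not deposited, so single values may mislead.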 A plus sign joins genes that one reagent is predicted to hit.

droplet/nuclear area B-score, replicate 1 | droplet/nuclear area B-score, replicate 2 | droplet/nuclear area B-score, replicate 3 | target | amplicon
0.275 | 1.49 | – | Nup58 | DRSC16235
-1.2 | 1.12 | – | dj-1beta | DRSC14599
-0.00556 | -0.334 | – | CAH6 | DRSC15505
-1.73 | -0.485 | 6.94 | Cpr35B | DRSC01949
-0.278 | -0.213 | – | Cpr35B | DRSC22797
-0.632 | 1.33 | – | Amacr | DRSC03198
-0.668 | -1.11 | – | CG10077 | DRSC09691
1 | 0.585 | – | CG12540 | DRSC19471
-5.48 | -3.67 | – | Roc1a | DRSC18483
0.65 | -0.0353 | – | Wsck | DRSC13682
0.513 | -3.61 | – | Surf6 | DRSC15588
-0.332 | -0.0329 | – | CG9018 | DRSC08618
1.06 | 4.01 | – | Gpo2 | DRSC06822
1.4 | -1.15 | – | CG31019 | DRSC13994
-0.11 | 0.778 | – | Obp83cd | DRSC12267
-0.0485 | 0.798 | – | AOX2 | DRSC15338
1.33 | -0.04 | – | CG7166 | DRSC11809
1.24 | 0.125 | – | enc | DRSC08716
-0.452 | -0.014 | – | eEFSec | DRSC04571
-0.311 | 0.0154 | – | CG33342 | DRSC13662
0.415 | -1.37 | – | CG5421 | DRSC02858
0.0591 | 0.779 | – | CG7655 | DRSC16275
-2.17 | -0.617 | 1.19 | tay | DRSC20142
-1.02 | 1.07 | – | CG1532 | DRSC20516
1.32 | 1.84 | – | CG15376 (retired record) | DRSC18046
4.86 | 9.25 | – | Not3 | DRSC04908
-0.793 | -1.22 | – | CG3939 | DRSC18498
-1.03 | 0.823 | – | Nlg4 | DRSC15108
-0.0361 | 0.144 | – | Nlg4 | DRSC15109
-1.11 | -1.06 | – | Nlg4 | DRSC15700
0.167 | -1.37 | – | Nlg4 | DRSC15701
0.937 | 0.0391 | – | Nlg4 | DRSC22243
0.185 | -0.443 | – | CG42809 + CG42810 | DRSC02532
-2.58 | -0.399 | – | CG42809 + CG42810 | DRSC02533
0.475 | – | – | Setd3 | DRSC17840
1.55 | 0.308 | – | Setd3 | DRSC18269
0.547 | -0.832 | – | Neos | DRSC11235
-0.694 | -2.02 | -1.36 | CG11162 | DRSC19391
-0.771 | -0.0969 | – | CG11162 | DRSC22538
-0.00422 | -0.386 | – | Cp16 | DRSC11119
-0.853 | -2.14 | – | CG8516 | DRSC16437
– | 4.13 | – | Set | DRSC16861
-2.63 | -1.07 | – | Dh31 | DRSC02196
1.37 | 2.95 | -1.27 | Tk | DRSC14954
-0.157 | -0.825 | – | Tk | DRSC21972
-1.76 | 0.585 | – | CG16815 | DRSC02521
0.0702 | 0.287 | – | Psf2 | DRSC00516
0.924 | 2.06 | – | Pbgs | DRSC09718
1.73 | -1.34 | – | yellow-c + CIAPIN1 | DRSC01898
2.45 | 1.78 | – | RpS14b | DRSC18711
-2.49 | 0.243 | – | kni | DRSC11891
-1.11 | 0.111 | – | kni | DRSC23093
1.23 | 1.49 | 1.67 | Lsm12a | DRSC19702
0.0186 | -1.04 | – | thoc5 | DRSC04327
-0.191 | -0.35 | 0.486 | Hayan | DRSC19989
-1.83 | 0.953 | – | Hayan | DRSC22231

As entered above.
Result of Cpr35B [DRSC22797] under “droplet/nuclear area B-score, replicate 2”: -0.213
Under “droplet/nuclear area B-score, replicate 2”, yellow-c + CIAPIN1 [DRSC01898] reads -1.34
For “droplet/nuclear area B-score, replicate 2”, Neos [DRSC11235] shows -0.832
Tk [DRSC14954], droplet/nuclear area B-score, replicate 3: -1.27
Not3 [DRSC04908], droplet/nuclear area B-score, replicate 2 → 9.25
RpS14b [DRSC18711], droplet/nuclear area B-score, replicate 2: 1.78
